From publication PMC4633636
These are yes or no findings as the source states them, for the method shown. In cells and extracts the contact can be indirect. Here binding means that the protein was enriched with, or labelled near, the bait; the list need not be complete.

Amino acid sequences for entries named in this document (tags omitted).
UniProt P78527: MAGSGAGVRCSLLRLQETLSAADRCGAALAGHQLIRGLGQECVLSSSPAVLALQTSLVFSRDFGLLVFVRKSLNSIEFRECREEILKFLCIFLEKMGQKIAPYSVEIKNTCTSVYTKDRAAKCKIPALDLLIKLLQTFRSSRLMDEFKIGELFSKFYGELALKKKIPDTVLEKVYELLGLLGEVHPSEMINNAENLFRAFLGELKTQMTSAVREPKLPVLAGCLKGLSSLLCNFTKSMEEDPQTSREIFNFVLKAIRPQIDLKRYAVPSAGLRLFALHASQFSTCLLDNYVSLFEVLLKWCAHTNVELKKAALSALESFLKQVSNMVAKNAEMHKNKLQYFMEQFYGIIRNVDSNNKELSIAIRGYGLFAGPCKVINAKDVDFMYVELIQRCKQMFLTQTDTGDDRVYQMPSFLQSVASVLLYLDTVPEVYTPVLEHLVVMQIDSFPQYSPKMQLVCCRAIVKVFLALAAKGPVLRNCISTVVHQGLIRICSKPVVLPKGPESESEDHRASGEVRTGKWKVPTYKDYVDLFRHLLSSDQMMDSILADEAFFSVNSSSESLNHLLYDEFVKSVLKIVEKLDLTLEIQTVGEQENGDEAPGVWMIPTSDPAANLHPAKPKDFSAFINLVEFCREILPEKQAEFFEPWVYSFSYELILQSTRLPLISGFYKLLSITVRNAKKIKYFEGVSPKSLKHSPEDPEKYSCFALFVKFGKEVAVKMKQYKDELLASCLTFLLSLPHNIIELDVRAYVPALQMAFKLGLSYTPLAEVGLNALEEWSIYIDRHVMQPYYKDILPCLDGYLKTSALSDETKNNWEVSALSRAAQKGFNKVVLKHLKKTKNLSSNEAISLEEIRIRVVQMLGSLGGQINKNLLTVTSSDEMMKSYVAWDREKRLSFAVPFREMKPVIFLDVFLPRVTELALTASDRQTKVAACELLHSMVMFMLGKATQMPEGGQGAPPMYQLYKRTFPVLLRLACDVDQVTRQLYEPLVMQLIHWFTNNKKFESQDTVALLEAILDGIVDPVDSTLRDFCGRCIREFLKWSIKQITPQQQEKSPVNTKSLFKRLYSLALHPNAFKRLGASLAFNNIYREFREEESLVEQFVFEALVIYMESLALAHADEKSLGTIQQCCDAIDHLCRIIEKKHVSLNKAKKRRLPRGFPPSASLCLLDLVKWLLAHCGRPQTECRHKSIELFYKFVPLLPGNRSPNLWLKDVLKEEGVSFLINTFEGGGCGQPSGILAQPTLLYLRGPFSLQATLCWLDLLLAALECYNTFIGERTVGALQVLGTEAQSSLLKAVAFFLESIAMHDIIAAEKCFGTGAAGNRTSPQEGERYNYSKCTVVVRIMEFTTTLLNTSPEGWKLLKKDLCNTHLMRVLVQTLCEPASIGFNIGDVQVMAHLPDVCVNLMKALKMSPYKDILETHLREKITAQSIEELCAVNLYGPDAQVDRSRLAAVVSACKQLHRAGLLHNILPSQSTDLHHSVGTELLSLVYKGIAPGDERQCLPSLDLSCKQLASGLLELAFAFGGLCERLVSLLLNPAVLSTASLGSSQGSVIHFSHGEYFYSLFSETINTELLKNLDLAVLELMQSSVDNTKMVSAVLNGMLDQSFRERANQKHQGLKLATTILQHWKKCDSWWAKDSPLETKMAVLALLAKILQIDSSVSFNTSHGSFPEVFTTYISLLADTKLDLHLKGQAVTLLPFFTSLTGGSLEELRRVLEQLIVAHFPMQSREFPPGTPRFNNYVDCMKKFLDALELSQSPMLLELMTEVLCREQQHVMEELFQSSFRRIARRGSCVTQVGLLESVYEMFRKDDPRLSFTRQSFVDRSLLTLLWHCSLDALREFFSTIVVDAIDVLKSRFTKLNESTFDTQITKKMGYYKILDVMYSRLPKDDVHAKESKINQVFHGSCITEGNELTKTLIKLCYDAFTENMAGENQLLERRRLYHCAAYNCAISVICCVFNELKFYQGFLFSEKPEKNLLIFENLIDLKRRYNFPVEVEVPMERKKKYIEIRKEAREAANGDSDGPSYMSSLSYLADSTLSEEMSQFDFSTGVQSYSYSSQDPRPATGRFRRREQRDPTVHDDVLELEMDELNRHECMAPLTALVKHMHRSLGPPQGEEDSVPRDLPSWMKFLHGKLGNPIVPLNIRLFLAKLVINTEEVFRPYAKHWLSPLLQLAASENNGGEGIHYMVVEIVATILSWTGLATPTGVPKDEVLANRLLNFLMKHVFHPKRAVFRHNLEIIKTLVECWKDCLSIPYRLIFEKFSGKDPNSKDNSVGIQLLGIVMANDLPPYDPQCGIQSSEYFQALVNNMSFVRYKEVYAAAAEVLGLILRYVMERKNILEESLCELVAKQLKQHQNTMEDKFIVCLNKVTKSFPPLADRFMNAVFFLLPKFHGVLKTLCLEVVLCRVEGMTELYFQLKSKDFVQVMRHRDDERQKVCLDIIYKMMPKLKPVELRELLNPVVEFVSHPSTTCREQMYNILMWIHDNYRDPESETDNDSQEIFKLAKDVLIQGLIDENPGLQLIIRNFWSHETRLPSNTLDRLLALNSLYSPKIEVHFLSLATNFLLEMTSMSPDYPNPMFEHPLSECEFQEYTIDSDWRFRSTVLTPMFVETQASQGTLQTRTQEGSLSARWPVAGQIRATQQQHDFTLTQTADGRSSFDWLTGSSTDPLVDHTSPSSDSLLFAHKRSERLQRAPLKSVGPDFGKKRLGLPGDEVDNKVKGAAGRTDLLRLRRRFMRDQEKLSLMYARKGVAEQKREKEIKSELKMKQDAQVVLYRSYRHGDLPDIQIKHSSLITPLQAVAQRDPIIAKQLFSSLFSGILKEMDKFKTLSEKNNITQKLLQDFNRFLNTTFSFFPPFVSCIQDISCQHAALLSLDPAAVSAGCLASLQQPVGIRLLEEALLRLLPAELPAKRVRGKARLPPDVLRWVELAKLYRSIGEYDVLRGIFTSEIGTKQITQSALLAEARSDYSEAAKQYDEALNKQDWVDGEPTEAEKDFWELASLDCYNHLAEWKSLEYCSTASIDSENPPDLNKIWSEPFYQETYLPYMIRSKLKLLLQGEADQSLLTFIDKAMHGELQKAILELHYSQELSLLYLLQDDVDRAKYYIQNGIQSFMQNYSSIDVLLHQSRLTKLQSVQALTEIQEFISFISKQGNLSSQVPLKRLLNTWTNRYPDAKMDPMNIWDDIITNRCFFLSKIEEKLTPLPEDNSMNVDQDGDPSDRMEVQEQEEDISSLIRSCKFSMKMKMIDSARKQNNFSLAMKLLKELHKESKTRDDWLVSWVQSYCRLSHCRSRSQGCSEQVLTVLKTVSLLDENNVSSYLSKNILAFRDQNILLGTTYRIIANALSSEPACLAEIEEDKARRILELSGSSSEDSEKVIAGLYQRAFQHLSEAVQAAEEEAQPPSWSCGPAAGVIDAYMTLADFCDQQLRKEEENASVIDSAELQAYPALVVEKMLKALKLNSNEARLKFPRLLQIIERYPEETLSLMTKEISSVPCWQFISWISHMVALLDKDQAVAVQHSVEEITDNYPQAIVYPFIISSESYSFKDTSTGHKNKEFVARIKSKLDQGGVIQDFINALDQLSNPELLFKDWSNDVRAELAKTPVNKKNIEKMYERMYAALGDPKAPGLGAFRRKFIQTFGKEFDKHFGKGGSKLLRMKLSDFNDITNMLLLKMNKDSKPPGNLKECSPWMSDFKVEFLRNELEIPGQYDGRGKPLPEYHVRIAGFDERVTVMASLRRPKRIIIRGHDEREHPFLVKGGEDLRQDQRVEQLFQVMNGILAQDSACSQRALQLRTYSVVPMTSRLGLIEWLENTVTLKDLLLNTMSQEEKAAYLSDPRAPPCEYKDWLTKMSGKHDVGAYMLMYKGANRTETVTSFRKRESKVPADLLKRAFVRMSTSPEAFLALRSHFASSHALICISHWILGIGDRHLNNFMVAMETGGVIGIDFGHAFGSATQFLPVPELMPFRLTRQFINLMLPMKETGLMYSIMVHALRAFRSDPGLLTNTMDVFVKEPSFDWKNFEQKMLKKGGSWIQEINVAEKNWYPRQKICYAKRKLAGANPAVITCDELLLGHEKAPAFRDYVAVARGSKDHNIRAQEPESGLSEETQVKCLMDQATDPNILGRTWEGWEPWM

Molecular target: human LRF tagged with Flag and haemagglutinin (HA) epitopes (human) (UniProt O95365)

DNA-PKcs (catalytic subunit of DNA-dependent protein kinase), endogenous in HeLa (from UniProt P78527 1-4128)
binding: binds
